Consider 71 sequences from the supplement of paper PMC10338343.

± gives the standard deviation. This is a selection; strong and weak results do not stand in their true shares. Many of these values have a large error.

This assay concerns MILI (PIWIL2) piRISC loaded with Kctd7 piRNA (26 nt). Put plainly: pre-steady-state target cleavage rate (min^-1); MIWI and MILI are mouse PIWI proteins and EfPiwi is from a freshwater sponge; tags in brackets are library labels; higher = faster piRNA-guided slicing of the target. The settings on record: guide: Kctd7 piRNA 5'p-UGUUAAUCUCUCAGAGAAGGUGACAG; auxiliary factor: 500 nM mouse GTSF1. The method, then:
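Cleave-'n-Seq: a library of target RNAs (target site embedded in constant flanks, ACAGCATTCCGCGTTAGTGATATCCG... 5' flank; DNA-blocked outside the site) at 0.1 nM was incubated with 1 nM active mouse MILI or MIWI piRISC (synthetic 5'-monophosphorylated piRNA guide) with or without 500 nM mouse GTSF1 at 33 °C for 1 min to 16 h. Uncleaved targets were sequenced and normalised to non-target controls, and the pooled three trials were fitted to a burst-and-steady-state model to give the pre-steady-state cleavage rate (min^-1; k3 is constrained to at most 1e-4). Sequence is the target site only; target names encode pairing extent (gX:gY) and contiguous / 1-mismatch / 2-mismatch / bulge geometry. Fits with R² ≤ 0 are excluded.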
In the case of UAGUGACAGUCCUUCUCUGAGAGAUAAUCA, the “pre-steady-state target cleavage rate” value was found to be 0.00111 ± 0.0057.
For UAGUGACAGUGGAACUCUGAGACAUUUACA the value was 0.00137 ± 0.014; for UAGUGACAGUGGUUCAUCUGAGAGAUUAACA, 0.00243 ± 0.0027.
Consider UAGUGACAGUCCUUCUCUGAGAGAUAAAGA, for which the “pre-steady-state target cleavage rate” value is 0.000359 ± 0.016.
To UAGUGACAGUGGAAGAGACAGAGAAUAAGA belongs 0.000431 ± 0.017.
For UAGUCUGUCACCUUCUCUGAGAGAUUAAACA the value was 0.147 ± 0.018; for UAGUGACAGUGGUUCUCUGAGCGAUUAACA, 0.000301 ± 0.028.
Regarding UAGUGACAGUGCAAGUCUGAGAGAUUAACA, the “pre-steady-state target cleavage rate” value was determined as 0.00155 ± 0.0045.
Regarding UAGUGACAGACCUACUCUGAGAGAUUAUGA, the “pre-steady-state target cleavage rate” value amounted to 0.00187 ± 0.0055.
For UAGUGACUCACCUUCUGUGAGAGAUUUUGA, the “pre-steady-state target cleavage rate” value was determined as 0.00903 ± 0.0039.
To UAGUGACAGUCCUUCUCUAGAGAUUAACA belongs 0.000972 ± 0.0089; to UAGUGACUCACCUUCUGUGAGAGAUAUUGA, 0.00222 ± 0.0075.
To UAGUGACAGUGGAACUCUGAGAGUUUAACA belongs 0.000198 ± 0.032.
Consider UAGUGACAGUGGUUCUGUGAGAGAUUUACA, for which the “pre-steady-state target cleavage rate” value was 0.000972 ± 0.0085.
To UAGUGACACUGCUUCUCUGAGAGAUUUUGA belongs 0.000834 ± 0.006; to UAGUGACAGUGGAAGAGUGAGGAGAUUAACA, less than 0.0001.
As for UAGUGACAGUCCUUCUGAGAGAGAUUAUGA, the “pre-steady-state target cleavage rate” value amounted to 0.00138 ± 0.0048.
As to UAGUGACAGUCCUUCUCUGAGAGAUAUUCA, the “pre-steady-state target cleavage rate” value turned out to be 0.000503 ± 0.013.
On to UAGUGACAGUGCUUGUCUGAGAGAAUAACA, for which the “pre-steady-state target cleavage rate” value was found to be 0.00262 ± 0.0037.
As for UAGUGACAGUGCUUCUCUGAGAGACUAACA, the “pre-steady-state target cleavage rate” value is 0.00253 ± 0.0032.
For UAGUGACAGACCUUCUCAGAGUGAUUAACA the value was 0.00141 ± 0.01; for UAGUGACAGUGGAAGACUGAGAGGAUUAACA, 0.000107 ± 0.017; for UAGUGACACACGUUCUCUGAGAGAUUUUGA, 0.00173 ± 0.0051.
To UAGUGACUCACCUUCUCUGACAGAUUUUGA belongs 0.000576 ± 0.015; to UAGUGACUCACCUUCUCAGAGUGAUUAACA, 0.00346 ± 0.0036.
With UAGUGACAGUGGAAGAGACUCUCAUUAACA, the “pre-steady-state target cleavage rate” value worked out at 0.000121 ± 0.02.
To UAGUGACAGUGGAAGACUGAGACAUUUACA belongs 0.000125 ± 0.044; to UAGUGACACUCCUUCUCUGAGAGAUUUUGA, 0.00133 ± 0.0073; to UAGUGACAGACCUUCUCUGAGCAGAUUAACA, 0.00167 ± 0.0071.
UAGUCUGUCACCUUCUCUGAGAGUAAAACA: the “pre-steady-state target cleavage rate” value was found to be 0.0676 ± 0.024.
Turning to UAGUGACACACCUUCUCUGAAGAUUAACA, the “pre-steady-state target cleavage rate” value is 0.00191 ± 0.0044.
Take UAGUGACUCUGGUUCUCUGAGAGAUUAACA: the “pre-steady-state target cleavage rate” value was found to be 0.000561 ± 0.016.
For UAGUGACACACCUUCUCUGAGUCUUUAUGA the value was 0.000642 ± 0.015; for UAGUCUGUCACCUUCUCUGAGAGUUUUACA, 0.171 ± 0.054; for UAGUGACAGUGCUUCUCUGUGAGAUAAACA, 0.00229 ± 0.0042.
With UAGUGUGUCACCUUCUCACUGAGAUUAUGA, the “pre-steady-state target cleavage rate” value turned out to be 0.00177 ± 0.0083.
UAGUGACAGUCCUUCUCUCUCAGAUUAAGA: the “pre-steady-state target cleavage rate” value came to 0.000308 ± 0.025.
To UAGUGACACACCUUCUCUGAGACAUUAACA belongs 0.0514 ± 0.0091; to UAGUGACACACCUUCUCUGAGCAGAUUAACA, 0.00162 ± 0.0072; to “UAGUGACACACCUUCUCUGACUCUAAUUGA [g11:g22:cont:t1A]”, 0.000334 ± 0.026.
For UAGUGACAGACCUUCUCAGAGAGAUUAUGA the value was 0.00398 ± 0.0045; for UAGUGUGUCACCUUCUCUGAAGAUUAACA, 0.00314 ± 0.0045.
With UAGUGAGUCUCCUUCUCUGAGAGAUAUUGA, the “pre-steady-state target cleavage rate” value amounted to 0.00214 ± 0.0058.
To UAGUGACAGUGCUUGUCUGAGAGAUAAACA belongs 0.00332 ± 0.0044.
For UAGUCUGUCACGAUCUCUGAGAGAUAUUGA the value was 0.000613 ± 0.0073.
For UAGUGACAGACCUUCUCUGACUGAUUAACA the value was 0.000946 ± 0.0098; for UAGUGACAGUGCUUCUGCUGAGAGAUUAACA, 0.000992 ± 0.0067.
As to UAGUGACAGUGGUUCUCUGAGAGAUUAUCA, the “pre-steady-state target cleavage rate” value stood at 0.0012 ± 0.0051.
To UAGUGACACACCUACUCUGAGACAUUAACA belongs 0.0243 ± 0.0072.
For UAGUGACAGUGGUUCUCUGACAGAUUAUCA the value was 0.000112 ± 0.052; for UAGUGACAGACCUUGUCUGAGAGAUUUUGA, 0.000692 ± 0.014; for UAGUGAGUCACCAACUCUGAGAGAUUUUGA, 0.00126 ± 0.0084.
For UAGUGACAGUGCUUCUCUUGAGAGAUUAACA the value was 0.000131 ± 0.024; for UAGUGACAGUGGAACUCUCUCAGAUUAACA, 0.000171 ± 0.022.
Regarding UAGUCUGUCACCAACUCUGAGAGAUUAAGA, the “pre-steady-state target cleavage rate” value came out at 0.047 ± 0.0083.
Turning to UAGUGACAGUGCUACUCUCAGAGAUUAACA, the “pre-steady-state target cleavage rate” value came out at 0.00114 ± 0.0042.
Take UAGUGACUCACCUUCUCUGACUCAUAUUGA: the “pre-steady-state target cleavage rate” value turned out to be 0.00033 ± 0.023.
For UAGUGACACACCUUCUCUGACAGUUUAACA the value was 0.00187 ± 0.0062; for UAGUGACAGACCUUCUCUGAGACAUAAACA, 0.000418 ± 0.02.
On to UAGUGACACACCUUCUCUGAGACAUUAUCA, for which the “pre-steady-state target cleavage rate” value amounted to 0.000721 ± 0.0098.
For UAGUGAGUGACCUUCUCUGAGAGAUUUUGA the value was 0.00381 ± 0.0043; for UAGUGACAGUGGUUCUCUCAGAGAUUUACA, 0.000165 ± 0.036.
To UAGUGUGUCACCUUCUCUGAGACAUUAUCA belongs 0.00447 ± 0.0049; to UAGUGACAGUGGUUCUCUGAGAGAUUAAA, 0.000548 ± 0.012.
As to UAGUGACUCACCUAGACUGAGAGAUUAAGA, the “pre-steady-state target cleavage rate” value stood at 0.000272 ± 0.031.
For UAGUGAGUCACCUUCUCUGAGAGAUAUAACA the value was 0.347 ± 0.046; for UAGUGACAGUCCUUCUGAGAGAGAUUAAGA, 0.00252 ± 0.0034.
For UAGUGUGUCACCUUCGUCUGAGAGAUUAACA the value was 0.088 ± 0.012.
As to UAGUGACAGUGGUUCUCUGAGAUAUUAACA, the “pre-steady-state target cleavage rate” value amounted to 0.000313 ± 0.0096.
As for UAGUGACAGUGGAUCUCUGAGAGCAUUAACA, the “pre-steady-state target cleavage rate” value stood at 0.000117 ± 0.028.
To UAGUGACACACCUUCUCUGACUCAUAUUGA belongs 0.00032 ± 0.021.
